Data from PMC9135943.
No constants are given. Whether binding was seen depends on the method and setting. Binding seen in cells or lysates may run through a third protein. Some results given as binding are weak or reduced against the parent protein; the word gives no strength.

The chains behind the UniProt entries cited, without tags or fusion partners. Where a name states a change or a piece, a line headed by the entry shows the natural chain unless it says otherwise. Residues count along the entry.
UniProt P63165, residues 1-97: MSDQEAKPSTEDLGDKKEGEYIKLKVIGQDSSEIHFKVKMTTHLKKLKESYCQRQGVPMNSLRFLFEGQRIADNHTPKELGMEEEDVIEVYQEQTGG
UniProt P08047: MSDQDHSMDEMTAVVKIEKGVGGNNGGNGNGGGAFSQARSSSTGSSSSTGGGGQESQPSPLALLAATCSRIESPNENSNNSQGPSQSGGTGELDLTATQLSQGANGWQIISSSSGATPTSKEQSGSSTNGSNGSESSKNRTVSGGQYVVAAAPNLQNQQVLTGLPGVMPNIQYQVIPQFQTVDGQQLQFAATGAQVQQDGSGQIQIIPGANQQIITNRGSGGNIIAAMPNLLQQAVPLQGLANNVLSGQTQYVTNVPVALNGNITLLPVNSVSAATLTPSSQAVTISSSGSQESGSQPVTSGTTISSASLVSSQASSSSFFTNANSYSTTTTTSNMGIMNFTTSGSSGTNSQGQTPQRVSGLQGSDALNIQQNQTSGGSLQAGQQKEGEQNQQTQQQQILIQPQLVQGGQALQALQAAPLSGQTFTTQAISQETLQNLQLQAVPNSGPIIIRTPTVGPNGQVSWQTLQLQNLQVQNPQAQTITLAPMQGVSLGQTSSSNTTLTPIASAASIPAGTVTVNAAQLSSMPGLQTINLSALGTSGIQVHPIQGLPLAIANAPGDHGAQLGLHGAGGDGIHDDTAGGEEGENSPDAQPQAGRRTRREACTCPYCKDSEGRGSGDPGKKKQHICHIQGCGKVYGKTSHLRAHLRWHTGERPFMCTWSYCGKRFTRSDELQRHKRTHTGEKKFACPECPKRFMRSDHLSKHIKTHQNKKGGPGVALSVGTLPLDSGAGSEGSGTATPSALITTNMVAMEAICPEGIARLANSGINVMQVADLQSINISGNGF

Biological target: SUMO1 (human (endogenous in hTert-BJ1)) (UniProt P63165)
Assay: co-IP; lysates of hTert-BJ1 Sp1-/- cells expressing Flag-Sp1 constructs, with or without 200 uM H2O2 for 2 h then fresh media for 24 h, 10 uM MG132; TGN buffer with 20 mM NEM and 4% SDS, SDS removed on spin columns; precipitated with pre-conjugated SUMO1 antibody beads overnight at 4 C; western blot with Flag and Sp1

binding | Substance
binds | Flag-tagged Sp1 wild-type (from UniProt P08047 1-785)
binds | Flag-tagged Sp1-30N^WT (from UniProt P08047 1-182) (domain or fragment)
